Test results from publication PMC4800418.
These are yes or no findings as the source states them, for the method shown. Binding seen in cells or lysates may run through a third protein. Binding calls can cover weak binding; strength is not graded here. Tags and fused reporters may be left off the sequences shown.

By UniProt entry, the sequences of proteins in these tests, tags left out. Where a name states a change or a piece, a line headed by the entry shows the natural chain unless it says otherwise.
UniProt B2RHE8: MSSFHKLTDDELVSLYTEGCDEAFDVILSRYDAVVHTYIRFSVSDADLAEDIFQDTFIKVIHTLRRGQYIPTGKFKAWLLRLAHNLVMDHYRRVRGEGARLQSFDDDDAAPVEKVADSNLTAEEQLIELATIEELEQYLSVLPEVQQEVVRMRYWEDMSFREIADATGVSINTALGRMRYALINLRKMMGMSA

Biological target: T1, PorX (endogenous, in P. gingivalis lysate) (Porphyromonas gingivalis (endogenous in the sigP/sigP-Myc+ complement strain)) (UniProt B2RJJ3)
T1 sequence: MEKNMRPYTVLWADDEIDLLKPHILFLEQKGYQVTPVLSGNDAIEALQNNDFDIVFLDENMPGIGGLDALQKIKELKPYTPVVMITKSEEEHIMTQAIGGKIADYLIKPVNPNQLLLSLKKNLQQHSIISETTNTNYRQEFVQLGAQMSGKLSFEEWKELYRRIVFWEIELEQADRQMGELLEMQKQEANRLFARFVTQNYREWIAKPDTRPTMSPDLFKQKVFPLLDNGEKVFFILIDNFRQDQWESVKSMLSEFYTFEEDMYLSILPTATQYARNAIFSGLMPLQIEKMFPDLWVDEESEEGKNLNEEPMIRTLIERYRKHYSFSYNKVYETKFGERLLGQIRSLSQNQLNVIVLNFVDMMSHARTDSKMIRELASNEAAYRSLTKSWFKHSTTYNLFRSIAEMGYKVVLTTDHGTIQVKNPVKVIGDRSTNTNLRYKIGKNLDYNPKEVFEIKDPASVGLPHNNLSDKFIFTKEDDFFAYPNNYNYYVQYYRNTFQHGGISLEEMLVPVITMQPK
Experiment: co-IP; P. gingivalis lysates (BugBuster) incubated with anti-PorX antibody cross-linked to Protein G sepharose; washed 5 times with 50 mM Tris-HCl, 0.15 M NaCl, 0.05% NP-40, pH 7.5; blots with anti-SigP and anti-c-Myc

## SigP-Myc (in the sigP/sigP-Myc+ complement strain) (from UniProt B2RHE8)
  binding: binds
